PubChem BioAssay AID330 (DTP/NCI, 2004)
The list is a part of this screen's results and no random one: it is rich in T/C values a quarter to a half above the control, in often repeated tests (any T/C) and in doses without a T/C. Other doses and runs of a compound stand elsewhere. T/C: endpoint of the treated group in % of that of the vehicle group. Some doses have a count of surviving animals in place of a T/C: the source files T/C as zero there, which appears to mark a toxic dose or a test without result, not a measured value. Some survivor counts are full or nearly so, which does not show that the dose was tolerated: the source hardly ever lists a survival T/C far under the control, and the zero likely stands for such cases as well. Survivors were counted at the toxicity check, usually on the fifth day, unless a day is given; later deaths do not show. Schedule codes are those of the source, read here as Q, the interval in days (D) or hours (H), X, the number of doses. Some entries hold several experiments; the results are listed from low to high. Marks such as (2×) say how often a value occurs here. For survival time, this PubChem deposit counts one and a half times the control or more as active, and values a quarter to a half above the control carry no call in these data; other NCI protocols may use other cut-offs.

Tested on: P388 leukemia ip, CD2F1 mice, survival T/C
Assay: NCI In Vivo Anticancer Drug Screen. Data for tumor model P388 Leukemia (intraperitoneal) in CD2F1 (CDF1) mice
Conditions: T/C endpoint: median survival time, higher T/C = longer survival
[1] = dose: 100.0 mg/kg/injection, schedule: Q01DX009 (ip), vehicle: saline with Tween-80
[2] = dose: 200.0 mg/kg/injection, schedule: Q01DX009 (ip), vehicle: saline with Tween-80
[3] = dose: 400.0 mg/kg/injection, schedule: Q01DX009 (ip), vehicle: saline with Tween-80
[4] = dose: 3.13 mg/kg/injection, schedule: Q01DX009 (ip), vehicle: water
[5] = dose: 3.13 mg/kg/injection, schedule: Q01DX009 (ip), vehicle: other
[6] = dose: 12.5 mg/kg/injection, schedule: Q01DX009 (ip), vehicle: other
[7] = dose: 50.0 mg/kg/injection, schedule: Q01DX009 (ip), vehicle: other
[8] = dose: 100.0 mg/kg/injection, schedule: Q01DX009 (ip), vehicle: saline
[9] = dose: 200.0 mg/kg/injection, schedule: Q01DX009 (ip), vehicle: saline

With `N#CN=[N+]([O-])c1ccc([N+](=O)[O-])cc1` the survivor count (dose: 12.5 mg/kg/injection, schedule: Q04DX003 (ip), vehicle: Klucel (hydroxypropylcellulose) (HPC)) was 6 of 6, the survivor count (dose: 25.0 mg/kg/injection, schedule: Q04DX003 (ip), vehicle: Klucel (hydroxypropylcellulose) (HPC)) was 6 of 6 and the survivor count (dose: 50.0 mg/kg/injection, schedule: Q04DX003 (ip), vehicle: Klucel (hydroxypropylcellulose) (HPC)) was 0 of 6. For the same compound, the survivor count (dose: 100.0 mg/kg/injection, schedule: Q04DX003 (ip), vehicle: Klucel (hydroxypropylcellulose) (HPC)) was 3 of 6 and the survivor count (dose: 200.0 mg/kg/injection, schedule: Q04DX003 (ip), vehicle: Klucel (hydroxypropylcellulose) (HPC)) was 0 of 6.
For `CCOC(=O)CC(=O)Nc1sc(CC)cc1C(=O)OCC`, the survivor count (dose: 240.0 mg/kg/injection, schedule: Q01DX005 (ip), vehicle: saline with Tween-80) was 6 of 6.
For `Cc1ccc(S(=O)(=O)N(Cc2ccccc2)S(=O)(=O)c2ccc(C)cc2)cc1`, the survivor count [1] was 6 of 6, the survivor count [2] was 5 of 6 and the survivor count [3] was 6 of 6.
`C[N+](C)(Cc1ccc(Br)cc1)C1c2ccccc2-c2ccccc21` was tested, and the survivor count (dose: 100.0 mg/kg/injection, schedule: Q01DX009 (ip), vehicle: Klucel (hydroxypropylcellulose) (HPC)) was 0 of 6 and the survivor count (dose: 200.0 mg/kg/injection, schedule: Q01DX009 (ip), vehicle: Klucel (hydroxypropylcellulose) (HPC)) was 0 of 6.
With `O=C1CCCN1.O=C1CCCN1.[Br][Co][Br]` the survivor count [1] was 6 of 6.
With `CC(=O)N1C(=O)C2C3C=CC(C3)C2C(=O)N1C(C)=O` (stereo not given) the survivor count [1] was 6 of 6, the survivor count [2] was 4 of 6 and the survivor count [3] was 1 of 6.
With `COc1cc2c3c(c1O)-c1cc4c(cc1CC3N(C)CC2)OCO4` (stereo not given) the survivor count (dose: 200.0 mg/kg/injection, schedule: Q04DX002 (ip), vehicle: saline with Tween-80) was 0 of 6 and the survivor count (dose: 400.0 mg/kg/injection, schedule: Q04DX002 (ip), vehicle: saline with Tween-80) was 0 of 6.
For `CNC(=S)N\N=C/C(/C=C/c1ccccc1)=N\NC(=S)NC`, the survivor count (dose: 400.0 mg/kg/injection, schedule: Q01DX001 (ip), vehicle: Klucel (hydroxypropylcellulose) (HPC)) was 6 of 6.
In the case of `COc1c(Br)cc(Br)cc1/C=C/[N+](=O)[O-]`, the survivor count [1] is reported as 0 of 6 and the survivor count [2] is reported as 0 of 6.
For `C/C=C1/C[N+]2(C)CCc3c([nH]c4ccccc34)C2CC1C(CO)C(=O)OC` (stereo not given), the survivor count [1] was 3 of 6.
With `NC(CCSCc1ccc(N(CCCl)CCCl)cc1)C(=O)O` (stereo not given) the survivor count [1] was 3 of 6, the survivor count (dose: 200.0 mg/kg/injection, schedule: Q04DX003 (ip), vehicle: saline with Tween-80) was 6 of 6 and the survivor count (dose: 400.0 mg/kg/injection, schedule: Q04DX003 (ip), vehicle: saline with Tween-80) was 3 of 6.
In the case of `COc1cccc2c1C(=O)c1c(O)c3c(c(O)c1C2=O)C[C@@](O)(/C(C)=N/NC(=O)c1ccccc1)C[C@@H]3OC1CC(N(C)C)C(O)C(C)O1` (stereo not given in full), the T/C (dose: 0.78 mg/kg/injection, schedule: Q01DX009 (ip), vehicle: water) is reported as 132 and 146 % of control, the T/C (dose: 1.56 mg/kg/injection, schedule: Q01DX009 (ip), vehicle: water) is reported as 134 % of control and the T/C [4] is reported as 145 % of control. For the same compound, the survivor count (dose: 12.5 mg/kg/injection, schedule: Q01DX009 (ip), vehicle: water) was 3 of 3 and 6 of 6.
With `CC1CCC(n2cnc3c(Cl)ncnc32)O1` (stereo not given) the survivor count (dose: 800.0 mg/kg/injection, schedule: Q01DX005 (ip), vehicle: Klucel (hydroxypropylcellulose) (HPC)) was 0 of 6.
In the case of `[N-]=[N+]=CC(=O)OCC1NC(=O)C(COC(=O)C=[N+]=[N-])NC1=O` (stereo not given), the survivor count (dose: 0.78 mg/kg/injection, schedule: Q01DX009 (ip), vehicle: other) is reported as 0 of 6 (2×), the survivor count (dose: 1.56 mg/kg/injection, schedule: Q01DX009 (ip), vehicle: other) is reported as 0 of 6 (2×) and the survivor count (dose: 3.12 mg/kg/injection, schedule: Q01DX009 (ip), vehicle: other) is reported as 0 of 6. For the same compound, the survivor count [5] was 0 of 6, the survivor count (dose: 6.25 mg/kg/injection, schedule: Q01DX009 (ip), vehicle: other) was 0 of 6 (2×) and the survivor count [6] was 0 of 4 (2×) and 0 of 6 (2×). For the same compound, the survivor count (dose: 25.0 mg/kg/injection, schedule: Q01DX009 (ip), vehicle: other) was 0 of 4 (2×), the T/C [7] was 129 and 137 % of control and the survivor count [7] was 0 of 4 (2×). The survivor count (dose: 100.0 mg/kg/injection, schedule: Q01DX009 (ip), vehicle: other) was 0 of 4 (2×) and the survivor count (dose: 200.0 mg/kg/injection, schedule: Q01DX009 (ip), vehicle: other) was 0 of 4 (2×).
With `O=C1C=CC(=O)C(Sc2cccc3ccccc23)=C1` the survivor count (dose: 25.0 mg/kg/injection, schedule: Q01DX005 (ip), vehicle: Klucel (hydroxypropylcellulose) (HPC)) was 6 of 6.
With `Cc1nc(N)nc(N)c1N1CCN(c2ccc(C(=O)NC(C(=O)O)C(=O)O)cc2)CC1` the T/C (dose: 1.87 mg/kg/injection, schedule: Q01DX005 (ip), vehicle: Klucel + Tween-80) was 145 % of control, the survivor count (dose: 7.5 mg/kg/injection, schedule: Q01DX005 (ip), vehicle: Klucel + Tween-80) was 6 of 6 and the survivor count (dose: 15.0 mg/kg/injection, schedule: Q01DX005 (ip), vehicle: Klucel + Tween-80) was 6 of 6. The survivor count (dose: 30.0 mg/kg/injection, schedule: Q01DX005 (ip), vehicle: Klucel + Tween-80) was 6 of 6, the survivor count (dose: 60.0 mg/kg/injection, schedule: Q01DX005 (ip), vehicle: Klucel + Tween-80) was 6 of 6 and the survivor count (dose: 120.0 mg/kg/injection, schedule: Q01DX005 (ip), vehicle: Klucel + Tween-80) was 1 of 6. The survivor count (dose: 240.0 mg/kg/injection, schedule: Q01DX005 (ip), vehicle: Klucel + Tween-80) was 5 of 6.
`c1ccc2c(c1)CN1CCN=C1N2` was tested, and the survivor count [8] was 0 of 6 and the survivor count [9] was 0 of 6.
With `CCn1c(O)c(N=NC(=N)SCC(C)C)c2ccccc21` the survivor count (dose: 25.0 mg/kg/injection, schedule: Q01DX009 (ip), vehicle: suspension in saline) was 6 of 6, the survivor count (dose: 50.0 mg/kg/injection, schedule: Q01DX009 (ip), vehicle: saline) was 6 of 6 and the survivor count [8] was 6 of 6. For the same compound, the survivor count [9] was 6 of 6.
`CCOC(=O)C(N)CSC(c1ccccc1)(c1ccccc1)c1ccccc1` (stereo not given) was tested, and the survivor count [4] was 6 of 6, the survivor count (dose: 6.25 mg/kg/injection, schedule: Q01DX009 (ip), vehicle: water) was 6 of 6 and the T/C (dose: 25.0 mg/kg/injection, schedule: Q01DX009 (ip), vehicle: water) was 133 and 135 % of control. For the same compound, the T/C (dose: 50.0 mg/kg/injection, schedule: Q01DX009 (ip), vehicle: water) was 146 % of control, the T/C (dose: 50.0 mg/kg/injection, schedule: Q01DX009 (oral), vehicle: water) was 126 % of control and the survivor count (dose: 100.0 mg/kg/injection, schedule: Q01DX009 (oral), vehicle: water) was 6 of 6. For the same compound, the T/C (dose: 132.0 mg/kg/injection, schedule: Q04DX003 (ip), vehicle: saline) was 145 % of control, the survivor count (dose: 200.0 mg/kg/injection, schedule: Q01DX009 (ip), vehicle: water) was 3 of 6 and the survivor count (dose: 200.0 mg/kg/injection, schedule: Q01DX009 (oral), vehicle: water) was 6 of 6. For the same compound, the survivor count (dose: 300.0 mg/kg/injection, schedule: Q04DX003 (ip), vehicle: saline) was 5 of 6 and the survivor count (dose: 400.0 mg/kg/injection, schedule: Q01DX009 (oral), vehicle: water) was 6 of 6.
In the case of `CC[Se](CC)CC.CC[Se](CC)CC.C[CH2][Ge]([CH2]C)[O][Ge]([CH2]C)[CH2]C`, the T/C (dose: 25.0 mg/kg/injection, schedule: Q01DX009 (ip), vehicle: saline) is reported as 126 % of control.
For `COc1cccc2c1C(=O)c1c(O)c3c(c(O)c1C2=O)CC(O)(C(=O)CO)CC3OC1CC(N)C(O)C(C)O1` (stereo not given) (tested in a mixture with another compound), the survivor count [5] was 6 of 6, the survivor count [6] was 5 of 6 and the survivor count [7] was 4 of 6.
With `CCCCCCC(=O)CC(SCCS)c1ccc(Cl)c(Cl)c1` (stereo not given) the survivor count [9] was 5 of 6.
